Read-outs that look alike come from different tables or passages of the source.
Molecular target: T1, pyrene-labeled F-actin (PFA) (Oryctolagus cuniculus, UniProt P68135)
T1 construct: Rabbit skeletal F-actin was prepared as described previously from acetone powder; from tissue; host or cells: rabbit skeletal muscle (acetone powder)
Assay: Compound binding to pyrene-labeled F-actin, steady-state fluorescence dose response
Design: species or system rabbit
Details: 2 μM PFA

[1] = no MgATP, fits to the Hill equation, read-out: apparent dissociation equilibrium constant, Kd, of compound binding to PFA

| Structure (SMILES) | Kd (200-500 μM MgATP, read-out: Kd of compound binding to PFA in the presence of MgATP) [µM] | Kd [1] [µM] |
| --- | --- | --- |
| OCCN1CCN(CCCN2c3ccccc3Sc3ccc(C(F)(F)F)cc32)CC1 [Flp] | 25.8 ± 4.2 | 16.8 ± 2.8 |
| CSc1ccc2c(c1)N(CCC1CCCCN1C)c1ccccc1S2 (stereo not drawn) [Thi] |  | 40 ± 10 |

Source: PMC8063737 (The Journal of Biological Chemistry, 2021)
